# Percent effect of library compounds

From ChEMBL document CHEMBL3988442, “University of Dundee, Small-Polar-MMV Screening Library” (2021).

Results are given as percent effect.
The controls that fix the scale are not given in the record; negative values are as filed.
The compounds are a random part of those screened.
Two or more numbers in one place are separate tests of the same structure; such repeats can differ widely.

Mtb cholesterol medium: 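Whole-cell growth test on Mycobacterium tuberculosis, read after 4 days in a medium based on cholesterol and the lipid DPPC; the read-out is not stated. Concentration: 50 µM. Higher reads as more growth inhibition (inferred: compounds with an IC50 in retests scored well above the rest). Size under these conditions: about 69,000 compounds, about 370 of them at 50% or above in at least one test.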
Mtb glucose medium: 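Growth of Mycobacterium tuberculosis over 3 days (7H9 medium with glucose and tyloxapol); the read-out is not stated. Tested at 50 µM. The record gives no direction; compounds that gave an IC50 in retests scored well above the rest, so higher reads as more growth inhibition. About 69,000 compounds were tested under these conditions; 1.1% (about 760) showed 50% or more at least once.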

structure	Mtb cholesterol medium	Mtb glucose medium
COc1ccccc1CN(CC1CCCO1)C(=O)c1cc(C)n[nH]1 (centres unmarked)	8.097	1.969 and -22.51
CC(=O)OCC1CCCCN1C(=O)c1ccc(Cn2ccnc2)o1 (centres unmarked)	-22.28	-21.38
O=C(O)C(F)(F)F.O=C(O)C(F)(F)F.[H][C@@]12CN(Cc3cccc(F)c3)CCC[C@]1(C(=O)O)CN(CCOC)C2	-18.49	-21.79
CN(C)c1ccc(CCCNC(=O)Nc2ccc(C#N)cc2)cc1	35.4	49.3
COc1ccc(NC(=O)C(C)(C)C)cc1OCc1cccnc1	-19.65	-31.21
CC(C)c1nc(CN(C)C2CCN(Cc3nc(C4CC4)no3)C2)no1 (centres unmarked)	-49.15	-27.4 and -3.206
CCc1nnc(C(C)N2CCC(NC(=O)C3CCCCC3)CC2)o1 (centres unmarked)	15.23	2.688
COc1cc(-c2nccn2CCn2cccn2)cc2c1OCO2	-19.26	-25.29
CCC(=O)NCC1(O)CCC(C(C)(C)C)CC1 (centres unmarked)	-7.571	-8.988
O=C1CCC2(CCN(CCSc3ccccc3)CC2)CN1CCCO	-18.57	-3.393
CN1CCNC(Cc2ccc(-c3ccncc3)cc2)C1=O.Cl (centres unmarked)	0.01454	4.032
CCc1cnc(N)nc1N[C@@H](C)c1ncccc1C	-13.15	-8.579
CC(C)(C)c1coc([C@@H]2COCCN2Cc2ccccn2)n1	-20.8	-4.22 and -10.7
Cc1c(F)cc(C(=O)O)cc1S(=O)(=O)Nc1ccc(F)c(C#N)c1	3.315	14.09
CCc1nnc2n1CCN(CCC(=O)Nc1cc(C)on1)C2	7.328	-14.29
CCn1ccnc1CN(C)Cc1nc(Cc2ccccc2Cl)no1	12.55	6.712 and 8.067
CCN1CCN(c2ncc3c(=O)n(Cc4ccco4)ccc3n2)CC1	21.95	37.45
CC(=O)N1CCCN(C(=O)c2cnn(-c3ccccc3Cl)c2)CC1	-0.335	-14.63
CN(C)c1ccc(C(=O)Nc2ccn(CCc3ccncc3)n2)cn1	-8.845	2.07
Cc1ccc(-c2cc(CNC(=O)N3CCC(CO)CC3)on2)cc1	-16	-31.88
Cc1ccc(N2Cc3nc(=O)[nH]n3C2=O)cc1	-8.868 and -9.53	-4.436
CN(Cc1cc(=O)c(O)co1)C1CCN(c2ccc(F)cc2)CC1	22.44	17.92
c1ccc(Cc2cccc(C3CCCN3C3CCOCC3)n2)cc1 (centres unmarked)	51.13 and 54.74	61.76
CC(C)c1nn(C)c(N(C)C)c1CNCCC(=O)NC1CCCCC1	-13.89	2.385
CCN(CC)S(=O)(=O)N1CCCN(CC2CCCO2)CC1 (centres unmarked)	-13.94	-26.03
Oc1cccc(C2CN(c3nnc(C4CC4)s3)CCO2)c1 (centres unmarked)	9.772	-6.44
CC(C)n1ccnc1C1CCN(C(=O)N2CCCC2)CC1	-7.527 and -16.5	-19.3
Cc1cnn(CC2CCCN2Cc2nnc(C3CC3)o2)c1 (centres unmarked)	-5.965	16.71 and -6.309
O=C(c1cc(C2CC2)on1)N1CCC(Oc2ncccc2Cl)CC1	18.95	42.19 and 41.79
CC(C)c1sc(Br)nc1C(=O)NCc1cccnc1	-30.79	14.03 and 27.2
Cc1noc(C)c1CN1CCC(NC(=O)OC(C)(C)C)CC1	-0.1228	6.032 and -20.44
Cc1cc(C[C@@H]2CCC[C@H]2NCc2c[nH]nc2-c2ccccc2)on1.O=C(O)CC(O)(CC(=O)O)C(=O)O	-9.927	26.58
CC(CS(C)(=O)=O)N(C(=O)CCc1ccc(Cl)s1)C1CC1 (centres unmarked)	12.5	30.06
CS(=O)(=O)NCC1CCCN(C(=O)c2cc3ccccc3o2)C1 (centres unmarked)	-15.42	2.144
CN(Cc1n[nH]c2c1CCC2)c1nc(C2CCCC2)nc2c1CNC2	14.8	14.63
COc1cn(CC(N)=O)c(CSc2nc(C)cc(C)n2)cc1=O	-21.29	-46.17
CN(C)c1ccc(C(=O)N2CCC(c3cc4cnccc4[nH]3)CC2)cc1	-8.123 and 10.92	23.36
c1ccc(Cc2nnc([C@H]3CCN(C4CCCCC4)C3)o2)cc1	10.08	-5.266 and 18
Cc1cccc(C2CCCCCN2Cc2cn(C)nc2C)c1 (centres unmarked)	11.77	17.13
CCN(CC)Cc1cc(C(=O)N2CCC3(CCN(C)CC3)C2)c(C)o1	-15.97	-0.8093 and -6.697
CCc1nnc2n1CCN(C(C(=O)NC1CC1)c1ccccc1)C2 (centres unmarked)	97.1	-14.51
Cc1ccc(Oc2ncccc2CNS(=O)(=O)N2CCOCC2)cn1	8.64	27.2
O=C(CN1CCCC1c1nc2cc(F)ccc2[nH]1)NCc1ccccn1 (centres unmarked)	0.7033	9.837
O=C(O)C(F)(F)F.[H][C@@]12C[C@H](C(=O)N3CCCCO3)CN(CC3CC3)[C@]1([H])CCO2	5.607 and -11.06	-29.66
Cc1cc(C)n(CC(C)NC(=O)c2cc(CN3CCC(O)CC3)on2)n1 (centres unmarked)	7.44	-3.364
Cc1oc(-c2ccsc2)nc1CC(=O)NCC(=O)Nc1cn[nH]c1	-22.16	-21.08
CCCNC(=O)CN(C)C1CCN(c2ccc(Cl)cc2)CC1	1.139	11.97 and 9.173
Cc1nc(NC(=O)COCC(F)(F)F)ccc1Br	16.87	54.39
COc1cccc(OC)c1OCCN1C(=O)CCNC1=O	8.109	0.8297
COc1ccc(C(=O)N2CCCCC2Cn2cccn2)c(F)c1 (centres unmarked)	-14.04	-17.25
CN(C)C(=O)N1CCCn2nc(CNC(=O)CCc3ccsc3)cc2C1	-5.818	1.485 and 4.709
CC(C)c1nnc(NC(=O)Cc2ccc(F)cc2)[nH]1	-26.63	-24.95
CC(Cc1cccs1)C(=O)NCc1cccc(N2CCCC2=O)c1 (centres unmarked)	14.21	-2.582

The first 5 entries again:

| structure | Mtb cholesterol medium | Mtb glucose medium |
|---|---|---|
| `COc1ccccc1CN(CC1CCCO1)C(=O)c1cc(C)n[nH]1` (centres unmarked) | 8.097 | 1.969 and -22.51 |
| `CC(=O)OCC1CCCCN1C(=O)c1ccc(Cn2ccnc2)o1` (centres unmarked) | -22.28 | -21.38 |
| `O=C(O)C(F)(F)F.O=C(O)C(F)(F)F.[H][C@@]12CN(Cc3cccc(F)c3)CCC[C@]1(C(=O)O)CN(CCOC)C2` | -18.49 | -21.79 |
| `CN(C)c1ccc(CCCNC(=O)Nc2ccc(C#N)cc2)cc1` | 35.4 | 49.3 |
| `COc1ccc(NC(=O)C(C)(C)C)cc1OCc1cccnc1` | -19.65 | -31.21 |